Assay results reported in PubChem BioAssay AID1487 (National Center for Advancing Translational Sciences (NCATS), 2009).
The other results are listed elsewhere or left out. Further columns of the screen follow, without active or inactive calls. Most of these compounds were active or inconclusive in the main read-out, so they are no random draw. Potencies come from curve fits of mixed quality, noted in brackets.

Experiment: qHTS Assay for Modulators of Lamin A Splicing
Details: HeLa LMNA splicing GFP/RFP minigene ratio, 48 h
In short: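 S3 HeLa cells stably expressing lamin A-EGFP splicing minigene plus DsRed2, 600 cells/well, 48 h compound exposure at 37C. Laser-scanning cytometry; analysed as GFP (500-530 nm)/RFP (575-640 nm) total intensity ratio; 0.5% DMSO vehicle.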

[1] = measured here: GFP splicing reporter channel
[2] = measured here: RFP viability control channel

SMILES	AC50 [1]	AC50 [2]
Oc1ccc(NC(=S)N=Nc2c(O)[nH]c3ccccc23)cc1	1.41 µM [falling, partial curve]	2.24 µM [falling, partial curve]
Cc1cccc(N2CCc3c2nc2ccc(Br)cc2c3N)c1	3.55 µM [rising, partial curve, poor fit]	25.1 µM [rising, partial curve]
O=C(Nc1c(C(=O)N2CCN(c3ccccc3)CC2)oc2ccccc12)c1ccco1	–	15.8 µM [rising, single point]
c1ccc2c(N3CCOCC3)nc(-c3ccncc3)nc2c1	–	12.6 µM [rising, single point]
CSc1nc(-c2ccccc2)nc(NC(=O)c2ccccc2)c1C(C)=O	–	3.55 µM [falling, full curve]
C=C(Nc1ccc(OCC)cc1)Nc1ccc(OCC)cc1	0.000794 µM [falling, full curve, poor fit]	–
CCc1ccccc1N(C1=NCCCS1)S(=O)(=O)c1ccc(C(C)(C)C)cc1	11.2 µM [rising, single point]	12.6 µM [rising, partial curve]
Cc1ccc2c(c1)N(Cc1cccc(Cl)c1)C(=O)c1cccnc1O2	15.8 µM [rising, partial curve]	14.1 µM [rising, partial curve]
CC(C)C(=O)NCC(c1ccc2c(c1)OCO2)N1CCN(c2ccccc2)CC1 (stereo unspecified)	39.8 µM [falling, partial curve, poor fit]	–
O=C(CCC1CCCCC1)NNC(=O)c1cnccn1	–	5.01 µM [rising, partial curve, poor fit]
Cc1ccc(CCNC(=O)CCS(=O)(=O)c2cc3c(cc2C)NC(=O)CO3)cc1	35.5 µM [falling, partial curve, poor fit]	–
Cc1nc2ncnn2c(C)c1CCC(=O)N1CCc2ccccc2C1	3.55 µM [rising, partial curve, poor fit]	–
O=C(Nc1nccs1)c1ccc(Br)c(S(=O)(=O)N2CCOCC2)c1	–	28.2 µM [rising, single point]
Nc1nc(CSC(=S)N2CCOCC2)nc(Nc2ccc(F)cc2)n1	0.112 µM [rising, full curve]	0.0794 µM [rising, full curve, poor fit]
Cc1cc(C)c(C#N)c(SCc2nc3ccccc3[nH]2)n1	–	22.4 µM [rising, single point]
CCSc1nnc(NC(=O)NC(CC)(C(F)(F)F)C(F)(F)F)s1	–	14.1 µM [rising, single point]
CC(=O)c1cc2c(cc1NS(=O)(=O)c1ccccc1F)OCO2	–	4.47 µM [rising, single point]
COc1cc2c(cc1OC)C(COc1cc(C)cc(C)c1)N(C(=O)COc1ccccc1)CC2 (stereo unspecified)	35.5 µM [falling, single point]	–
CN(C)C(C)(C)C#CC(O)(c1ccccc1)c1ccccc1	0.562 µM [rising, partial curve, poor fit]	–
NS(=O)(=O)c1ccc(CCNC(=O)c2cc(-c3ccccc3)nc3ccccc23)cc1	–	35.5 µM [rising, single point]
Cc1ccccc1CCNC(=O)c1cc2cc(S(=O)(=O)N3CCCCC3)ccc2n1C	–	10 µM [falling, partial curve]
Cc1cccc(C(=O)N2CC3(C)CC2CC(C)(C)C3)c1 (stereo unspecified)	–	35.5 µM [rising, single point]
COc1ccc(NC(=O)CN(C)S(=O)(=O)c2cccc3nsnc23)cc1OC	7.08 µM [rising, partial curve]	5.01 µM [rising, partial curve]
O=C(COc1ccccc1)Nc1ccccc1N1CCCCC1	14.1 µM [rising, partial curve, poor fit]	35.5 µM [rising, single point]
CCCCCc1c(C)nc(NCc2ccccc2)[nH]c1=O	–	35.5 µM [rising, single point]
COc1ccc(-c2nnc(NC(=O)c3ccc(S(=O)(=O)N4CCc5ccccc5C4)cc3)o2)cc1	–	12.6 µM [rising, partial curve]
O=C(NCCc1ccccc1)C(c1cccs1)N(C(=O)CCl)c1ccc(Cl)cc1 (stereo unspecified)	5.62 µM [falling, partial curve]	3.16 µM [falling, single point]
COc1ccc(CCNCC(=O)Nc2ccccc2C(F)(F)F)cc1	10 µM [falling, partial curve, poor fit]	35.5 µM [falling, single point]

3 entries already listed, sorted by formula weight, falling.
SMILES	AC50 [1]	AC50 [2]
COc1cc2c(cc1OC)C(COc1cc(C)cc(C)c1)N(C(=O)COc1ccccc1)CC2 (stereo unspecified)	35.5 µM [falling, single point]	–
Cc1ccccc1CCNC(=O)c1cc2cc(S(=O)(=O)N3CCCCC3)ccc2n1C	–	10 µM [falling, partial curve]
Cc1cccc(C(=O)N2CC3(C)CC2CC(C)(C)C3)c1 (stereo unspecified)	–	35.5 µM [rising, single point]

Next compounds follow:

SMILES	AC50 [1]	AC50 [2]
CCC(=O)Nc1c(S(=O)(=O)c2ccccc2)c2nc3ccccc3nc2n1C(C)c1ccccc1 (stereo unspecified)	35.5 µM [rising, single point]	35.5 µM [rising, single point]
Cc1ccc(CN(C(=O)COc2ccccc2Cl)c2ccccn2)o1	3.16 µM [rising, full curve, poor fit]	–
COc1ccccc1CN(Cc1nc2ccccc2c(=O)[nH]1)S(=O)(=O)c1ccc2ccccc2c1	–	5.62 µM [rising, full curve]
Cc1csc(NC(=O)c2cccc(Cn3nc(C)c(Br)c3C)c2)n1	12.6 µM [rising, single point]	22.4 µM [rising, single point]
Cc1cccc(C)c1OCC(O)CNS(=O)(=O)c1ccccc1C(=O)N1CCCCC1 (stereo unspecified)	–	22.4 µM [rising, single point]
O=C(CNCCC1=CCCCC1)Nc1ccc(N2CCCCCC2)cc1	–	31.6 µM [rising, single point]
CCn1cc(S(=O)(=O)c2cc(C)cc(C)c2)c(=O)c2cc(F)c(N3CCCCC3)cc21	0.01 µM [falling, full curve, poor fit]	39.8 µM [falling, partial curve, poor fit]
CS/C(=C\[N+](=O)[O-])Nc1ccc(C)cc1	39.8 µM [falling, partial curve, poor fit]	35.5 µM [falling, partial curve]
Cc1c(O)c(=O)ccn1C	0.01 µM [rising, full curve, poor fit]	–
COCCNC(=S)N1CCc2cc(OC)c(OC)cc2C1COc1ccc(C(C)C)cc1 (stereo unspecified)	–	17.8 µM [rising, single point]
O=C(CCNc1ccc(Br)cc1)c1cccc([N+](=O)[O-])c1	–	35.5 µM [falling, single point]
CC1CC(C)CN(CC(=O)N2CCOCC2)C1 (stereo unspecified)	0.0794 µM [rising, full curve]	0.0141 µM [rising, full curve]
Cc1cccc(Nc2nnc(SCC(=O)Nc3ccccc3[N+](=O)[O-])s2)c1C	–	15.8 µM [rising, single point]
Cc1ccc(CNC(=O)Nc2cc(C(=O)NCc3cccc(F)c3)ccc2N2CCCC2)cc1	28.2 µM [rising, partial curve, poor fit]	5.62 µM [rising, partial curve, poor fit]
O=C(CC(=O)N/N=C\c1ccc([N+](=O)[O-])cc1)NCCc1ccccc1	0.0398 µM [falling, full curve, poor fit]	–
CCOC(=O)N1CCN(C(=O)CN(c2ccccc2OC)S(=O)(=O)c2ccc(OC)cc2)CC1	–	5.62 µM [falling, partial curve, poor fit]
CCOC(=O)c1c(C)sc(-c2c(-c3ccccc3)[nH]c3[nH]c(=O)[nH]c(=O)c23)c1O	0.0708 µM [rising, partial curve, poor fit]	35.5 µM [rising, single point]
N/N=C1\CCCc2nonc21	7.08 µM [falling, partial curve, poor fit]	–
COc1ccc(/C=N/Nc2nonc2N)cc1OC	3.98 µM [falling, full curve, poor fit]	–
O=C(NC1CCCC1)C1CCN(S(=O)(=O)N2CCCCC2)CC1	0.794 µM [falling, single point]	0.631 µM [falling, partial curve, poor fit]
Cc1ccc([N+](=O)[O-])cc1S(=O)(=O)N(C)C	0.000708 µM [falling, full curve, poor fit]	0.000794 µM [falling, full curve, poor fit]
CC(C)c1ccc(C(CC(=O)O)NC(=O)c2cccs2)cc1 (stereo unspecified)	0.0631 µM [falling, full curve, poor fit]	–
CCN(CCCNC(=O)CN(C)S(=O)(=O)c1cccc2nsnc12)c1cccc(C)c1	35.5 µM [rising, single point]	35.5 µM [rising, single point]
COc1ccc(/C=N/NC(=S)Nc2ccccc2[N+](=O)[O-])cc1O	–	11.2 µM [rising, partial curve, poor fit]
O=C1CC(N2CCN(c3ccc(F)cc3)CC2)C(=O)N1Cc1ccc(N2CCCC2=O)cc1 (stereo unspecified)	14.1 µM [rising, single point]	22.4 µM [rising, single point]
O=C(Nc1ccccc1)N1CCC(=S)Nc2ccccc21	5.62 µM [falling, single point]	5.62 µM [falling, single point]
Cc1ccc(-n2nnnc2SCC(=O)Nc2cccnc2Cl)cc1	–	22.4 µM [rising, partial curve]

Quoted from above, two compounds:
SMILES	AC50 [1]	AC50 [2]
O=C(CC(=O)N/N=C\c1ccc([N+](=O)[O-])cc1)NCCc1ccccc1	0.0398 µM [falling, full curve, poor fit]	–
CCOC(=O)N1CCN(C(=O)CN(c2ccccc2OC)S(=O)(=O)c2ccc(OC)cc2)CC1	–	5.62 µM [falling, partial curve, poor fit]
